Source: PubChem BioAssay AID248 (DTP/NCI, 2004)
The list shows only some results of the screen, not a fair sample: it is rich in T/C values a quarter to a half above the control, in often repeated tests (any T/C) and in doses without a T/C. Further doses and runs are listed elsewhere. T/C: endpoint of the treated group in % of that of the vehicle group. Some entries give survivors of the animals treated and no T/C: the source holds a T/C of zero for them, seemingly a mark for toxic or unscored doses. Some survivor counts are full or nearly so, which does not show that the dose was tolerated: survival well below the control is almost never listed, so the zero probably covers shortened survival too. Counts of survivors are from the toxicity check (mostly the fifth day) where no day follows; animals may have died later. Schedule codes are those of the source, read here as Q, the interval in days (D) or hours (H), X, the number of doses. Some schedule codes hold Z or #, which are not explained here. Some entries hold several experiments; the results are listed from low to high. Where survival is the endpoint, the PubChem record calls one and a half times the control and up active, and a quarter to a half above the control has no call in these data; cut-offs in other NCI protocols can differ. Additions like (4×) count equal records among those shown.

Tested on: L1210 leukemia ip in BDF1 mice, survival T/C
Assay: NCI In Vivo Anticancer Drug Screen. Data for tumor model L1210 Leukemia (intraperitoneal) in B6D2F1 (BDF1) mice
Settings: T/C endpoint: mean survival time, higher T/C = longer survival
[1] = dose: 100.0 mg/kg/injection, schedule: Q04DX002 (ip), vehicle: Klucel (hydroxypropylcellulose) (HPC)
[2] = dose: 200.0 mg/kg/injection, schedule: Q01DX009 (ip), vehicle: Klucel (hydroxypropylcellulose) (HPC)
[3] = dose: 400.0 mg/kg/injection, schedule: Q01DX009 (ip), vehicle: Klucel (hydroxypropylcellulose) (HPC)
[4] = dose: 400.0 mg/kg/injection, schedule: Q04DX002 (ip), vehicle: Klucel (hydroxypropylcellulose) (HPC)
[5] = dose: 50.0 mg/kg/injection, schedule: Q01DX009 (ip), vehicle: saline with Tween-80
[6] = dose: 100.0 mg/kg/injection, schedule: Q01DX009 (ip), vehicle: saline with Tween-80
[7] = dose: 200.0 mg/kg/injection, schedule: Q04DX002 (ip), vehicle: saline with Tween-80
[8] = dose: 400.0 mg/kg/injection, schedule: Q04DX002 (ip), vehicle: saline with Tween-80
[9] = dose: 6.25 mg/kg/injection, schedule: Q01DX009 (ip), vehicle: saline with Tween-80
[10] = dose: 25.0 mg/kg/injection, schedule: Q01DX009 (ip), vehicle: saline with Tween-80
[11] = dose: 400.0 mg/kg/injection, schedule: Q01DX009 (ip), vehicle: saline
[12] = dose: 100.0 mg/kg/injection, schedule: Q01DX001 (ip), vehicle: saline
[13] = dose: 200.0 mg/kg/injection, schedule: Q01DX001 (ip), vehicle: saline
[14] = dose: 400.0 mg/kg/injection, schedule: Q01DX001 (ip), vehicle: saline
[15] = dose: 400.0 mg/kg/injection, schedule: Q01DX001 (ip), vehicle: Klucel (hydroxypropylcellulose) (HPC)
[16] = dose: 200.0 mg/kg/injection, schedule: Q01DX001 (ip), vehicle: Klucel (hydroxypropylcellulose) (HPC)

CCC(=O)C1(c2ccccc2)CCNCC1
survivor count [1]: 3 of 3 | survivor count [2]: 2 of 3 | survivor count [3]: 0 of 3 | survivor count [4]: 1 of 3

O=c1oc(Cl)cc2oc(=O)n(-c3ccccc3)c(=O)c12
survivor count [5]: 3 of 3 | survivor count [6]: 0 of 3 | survivor count [7]: 1 of 3 | survivor count [8]: 0 of 3

O=C(c1ccccc1)C1C(c2ccccc2)OP(c2ccccc2)(c2ccccc2)(c2ccccc2)C1c1ccccc1 (configuration not stated)
survivor count [9]: 3 of 6 | survivor count (dose: 12.5 mg/kg/injection, schedule: Q04DX003 (ip), vehicle: saline with Tween-80): 6 of 6 | survivor count [10]: 1 of 6

Cc1cc(C)c(C(=O)C=O)c(C)c1
survivor count (dose: 400.0 mg/kg/injection, schedule: Q04DX003 (ip), vehicle: Klucel (hydroxypropylcellulose) (HPC)): 6 of 6

CN(CCN(C)P(=O)(N1CC1)N1CC1)P(=O)(N1CC1)N1CC1
T/C (dose: 10.0 mg/kg/injection, schedule: Q01DX Z (ip), vehicle: saline): 138 % of control

CC1N(C)CCC1(C)CN1c2ccccc2Sc2ccccc21 (configuration not stated)
survivor count (dose: 400.0 mg/kg/injection, schedule: Q04DX003 (ip), vehicle: saline): 3 of 6

COc1ccc2c(c1O)C13CCN(C)C(C2)C1CCC1(C3)OCCO1 (configuration not stated)
survivor count [11]: 0 of 6

Nc1nc(SCc2ccccc2Cl)cc(C(=O)O)n1
survivor count (dose: 25.0 mg/kg/injection, schedule: Q01DX Z (ip), vehicle: methylcellulose (MC)): 5 of 6 | survivor count (dose: 100.0 mg/kg/injection, schedule: Q01DX Z (ip), vehicle: methylcellulose (MC)): 0 of 6 | survivor count (dose: 200.0 mg/kg/injection, schedule: Q01DX Z (ip), vehicle: methylcellulose (MC)): 0 of 6

CNNC(=O)c1ccccc1
T/C (dose: 25.0 mg/kg/injection, schedule: Q04DX002 (ip), vehicle: saline): 125 % of control

NC(=S)N/N=C/c1ccc(F)cn1
T/C [9]: 129 % of control | T/C (dose: 12.5 mg/kg/injection, schedule: Q01DX009 (ip), vehicle: saline with Tween-80): 133 % of control | survivor count [10]: 0 of 6 and 2 of 6 | survivor count (dose: 28.1 mg/kg/injection, schedule: Q01DX009 (ip), vehicle: saline with Tween-80): 3 of 10 | survivor count (dose: 50.0 mg/kg/injection, schedule: Q01DX001 (ip), vehicle: saline with Tween-80): 1 of 10 | survivor count (dose: 50.0 mg/kg/injection, schedule: Q04DX002 (ip), vehicle: saline with Tween-80): 0 of 3 | survivor count (dose: 75.0 mg/kg/injection, schedule: Q01DX001 (ip), vehicle: saline with Tween-80): 1 of 10 | survivor count (dose: 112.5 mg/kg/injection, schedule: Q01DX001 (ip), vehicle: saline with Tween-80): 0 of 10

CCCC(=O)Oc1ccc(/C=N/NC(N)=S)nc1
T/C [5]: 132 % of control | T/C [7]: 133 % of control | T/C [8]: 133 % of control

CN(C)c1ccc2cc3ccc(N(C)C)cc3nc2c1
survivor count (dose: 100.0 mg/kg/injection, schedule: Q04DX002 (ip), vehicle: saline with Tween-80): 3 of 3 | survivor count [7]: 1 of 3 | survivor count [8]: 0 of 3

CCCCN(C)/N=N\c1[nH]ncc1C(N)=O
T/C (dose: 30.0 mg/kg/injection, schedule: Q01DX009 (ip), vehicle: saline with Tween-80): 139 % of control | T/C (dose: 32.5 mg/kg/injection, schedule: Q01DX009 (ip), vehicle: saline with Tween-80): 131 % of control | T/C (dose: 44.0 mg/kg/injection, schedule: Q01DX009 (ip), vehicle: saline with Tween-80): 134 % of control | T/C (dose: 100.0 mg/kg/injection, schedule: Q01DX009 (ip), vehicle: other): 140 % of control

C/C(N)=C\C#N
survivor count [12]: 1 of 4 | survivor count [13]: 2 of 4 | survivor count [14]: 0 of 4

CC(C)(CCCCC(C)(C)NC(=O)Nc1ccc(Cl)c(Cl)c1)NC(=O)Nc1ccc(Cl)c(Cl)c1
survivor count (dose: 400.0 mg/kg/injection, schedule: Q01DX001 (ip), vehicle: carboxymethylcellulose (CMC)): 4 of 4

CCN(CC)CCN(C(=O)Cc1cccc2ccccc12)c1ccccc1N
survivor count (dose: 150.0 mg/kg/injection, schedule: Q01DX001 (ip), vehicle: acid diluted with saline): 3 of 6 | survivor count (dose: 300.0 mg/kg/injection, schedule: Q01DX001 (ip), vehicle: acid diluted with saline): 0 of 6

CC(C)(C)COC(=O)C(C)(C)CC(C)(C)C
T/C [14]: 148 % of control

COc1cc2c(c(OC)c1OC)-c1ccc(SCc3ccccc3)c(=O)cc1[C@@H](NC(C)=O)CC2
T/C (dose: 12.5 mg/kg/injection, schedule: Q01DX009 (ip), vehicle: Klucel (hydroxypropylcellulose) (HPC)): 131 % of control | survivor count (dose: 50.0 mg/kg/injection, schedule: Q01DX009 (ip), vehicle: Klucel (hydroxypropylcellulose) (HPC)): 6 of 6 | survivor count (dose: 100.0 mg/kg/injection, schedule: Q01DX009 (ip), vehicle: Klucel (hydroxypropylcellulose) (HPC)): 6 of 6 | survivor count [2]: 2 of 6 | survivor count [3]: 0 of 6

CC(=O)NCCCOc1ccc([N+](=O)[O-])cc1Cl
T/C [1]: 99 (2×), 100, 105 % of control | T/C (dose: 200.0 mg/kg/injection, schedule: Q04DX002 (ip), vehicle: Klucel (hydroxypropylcellulose) (HPC)): 105, 108, 111, 125 % of control | survivor count [15]: 1 of 6 | survivor count [3]: 1 of 3 and 4 of 6 | survivor count [4]: 1 of 6, 1 of 3, 3 of 6

O=C1OC2CCC3C1C3C2Br (configuration not stated)
survivor count (dose: 50.0 mg/kg/injection, schedule: Q01DX009 (ip), vehicle: acetone): 5 of 6 | survivor count (dose: 100.0 mg/kg/injection, schedule: Q01DX009 (ip), vehicle: acetone): 0 of 6

CC(C)C1C(=O)N2CCCC2C2(O)OC(NC(=O)C3C=C4c5cccc6[nH]cc(c56)CC4N(C)C3)(C(C)C)C(=O)N12 (configuration not stated)
survivor count (dose: 200.0 mg/kg/injection, schedule: Q01DX009 (ip), vehicle: saline): 1 of 6 | survivor count [11]: 0 of 6

CCN(CC)c1ccc(C=Nc2cccc(C(F)(F)F)c2)cc1
survivor count [3]: 4 of 6

OC1(c2ccccc2)CCN(Cc2ccccc2)CC1
survivor count [16]: 0 of 6 | survivor count [15]: 0 of 6

O=C1CC2CC1C1C3CCC(CC3)C21 (configuration not stated)
survivor count [5]: 2 of 3 | survivor count [6]: 0 of 3 | survivor count (dose: 200.0 mg/kg/injection, schedule: Q01DX009 (ip), vehicle: saline with Tween-80): 0 of 3

Cc1ccc(S(=O)(=O)O/C=C2\CCOC2=O)cc1
survivor count [4]: 2 of 3

CC1=NCCc2cc3[nH]c4ccccc4c3cc21
survivor count [16]: 0 of 6 | survivor count [15]: 0 of 6

CCN1CC2c3cc(OC)c(OC)cc3CC(c3ccccc3)C2C1 (configuration not stated)
survivor count [5]: 3 of 6

CCC1COC(Nc2cccc3c2CCCC3)=N1 (configuration not stated)
survivor count (dose: 400.0 mg/kg/injection, schedule: Q04DX003 (ip), vehicle: saline with Tween-80): 4 of 6

COc1cc(C(=O)Nc2ccc(NC3=NCCN3)cc2)cc(C(=O)Nc2ccc(NC3=NCCN3)cc2)c1
survivor count (dose: 15.0 mg/kg/injection, schedule: Q01DX Z (ip), vehicle: methylcellulose (MC)): 2 of 6 | survivor count (dose: 30.0 mg/kg/injection, schedule: Q01DX Z (ip), vehicle: methylcellulose (MC)): 0 of 6 | survivor count (dose: 60.0 mg/kg/injection, schedule: Q01DX Z (ip), vehicle: methylcellulose (MC)): 0 of 6 | survivor count (dose: 120.0 mg/kg/injection, schedule: Q01DX Z (ip), vehicle: methylcellulose (MC)): 0 of 6

CCCCCCCCCCCCCCCCCC
survivor count (dose: 400.0 mg/kg/injection, schedule: Q04DX002 (ip), vehicle: other): 3 of 3

C[C@]12CC[C@H]3[C@@H](CC[C@]4(O)C[C@@H](O)CC[C@]34C=O)[C@@]1(O)CC[C@@H]2c1ccc(=O)oc1
survivor count [12]: 0 of 4 | survivor count [13]: 0 of 4 | survivor count [14]: 0 of 4
